Results published in article PMC4854477.
These are yes or no findings as the source states them, for the method shown. Binding seen in cells or lysates may run through a third protein.

The chains behind the UniProt entries cited, without tags or fusion partners. Where a name states a change or a piece, a line headed by the entry shows the natural chain unless it says otherwise.
UniProt Q92667: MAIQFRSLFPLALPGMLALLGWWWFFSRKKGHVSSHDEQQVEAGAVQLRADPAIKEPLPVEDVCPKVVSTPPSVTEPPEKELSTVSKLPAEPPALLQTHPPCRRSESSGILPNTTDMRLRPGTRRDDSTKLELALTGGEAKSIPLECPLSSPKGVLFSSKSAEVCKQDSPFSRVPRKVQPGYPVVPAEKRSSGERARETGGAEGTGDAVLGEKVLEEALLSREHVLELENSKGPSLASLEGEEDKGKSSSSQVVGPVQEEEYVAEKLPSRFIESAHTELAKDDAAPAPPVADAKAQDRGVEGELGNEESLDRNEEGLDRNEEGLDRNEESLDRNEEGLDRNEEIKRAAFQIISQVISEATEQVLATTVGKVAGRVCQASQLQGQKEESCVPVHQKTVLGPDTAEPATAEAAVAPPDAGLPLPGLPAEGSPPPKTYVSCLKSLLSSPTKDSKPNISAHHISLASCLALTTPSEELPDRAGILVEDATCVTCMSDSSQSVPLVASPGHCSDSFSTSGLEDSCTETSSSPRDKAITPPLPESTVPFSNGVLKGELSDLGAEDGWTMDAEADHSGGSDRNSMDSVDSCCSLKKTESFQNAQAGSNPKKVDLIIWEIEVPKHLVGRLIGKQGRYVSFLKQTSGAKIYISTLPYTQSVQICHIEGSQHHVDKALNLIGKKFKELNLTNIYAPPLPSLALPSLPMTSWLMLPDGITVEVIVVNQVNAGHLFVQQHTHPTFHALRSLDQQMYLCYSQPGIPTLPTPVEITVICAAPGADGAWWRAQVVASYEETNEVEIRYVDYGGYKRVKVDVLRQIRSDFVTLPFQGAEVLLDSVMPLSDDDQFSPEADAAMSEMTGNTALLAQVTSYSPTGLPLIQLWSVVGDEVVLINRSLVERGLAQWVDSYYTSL
UniProt P13861: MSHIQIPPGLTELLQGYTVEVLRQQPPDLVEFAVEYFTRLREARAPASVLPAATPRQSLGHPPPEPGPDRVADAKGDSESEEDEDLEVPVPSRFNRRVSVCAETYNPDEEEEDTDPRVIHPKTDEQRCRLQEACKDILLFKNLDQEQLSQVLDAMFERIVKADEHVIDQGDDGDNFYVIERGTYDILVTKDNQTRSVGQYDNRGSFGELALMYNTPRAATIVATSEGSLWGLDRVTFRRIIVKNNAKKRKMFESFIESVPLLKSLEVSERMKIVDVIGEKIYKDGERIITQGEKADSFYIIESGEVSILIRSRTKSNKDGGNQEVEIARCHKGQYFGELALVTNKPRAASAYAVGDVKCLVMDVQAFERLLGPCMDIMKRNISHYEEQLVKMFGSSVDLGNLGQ

Target: AKAP1Δ, EGFP fusion (UniProt Q92667)
Assay: co-IP; HT1080 cells co-transfected with PKA subunits and EGFP fusions of AKAP1 constructs; immunoprecipitation with an anti-EGFP antibody; co-precipitating PKA detected by western blot

- binding: no binding
Substance: WT RIIα, transfected (from UniProt P13861 1-404)
